{"source": "PubChem BioAssay AID493014", "about": "(National Center for Advancing Translational Sciences (NCATS), 2011)", "note": "Among all 340,000 compounds or so, about 170 (0.05%) were called active. The shares of active, inactive and inconclusive entries below differ from those in the screen. Calls come from the whole dose curve; as a rule, active = well fitted inhibition curve with a large enough effect in the signal ratio, with a control signal flat (not every such curve was filed as active); inconclusive = small, poorly fitted or top-dose-only effect, or effect the other way, or a change in a side signal; inactive = flat fitted curve, though single readings scatter; the % refers to the signal ratio. Where the call is inconclusive, the potency comes from a doubtful curve fit. Potency is the fitted concentration of half-maximal effect.", "data": [{"assay": "qHTS Assay to Find Inhibitors of Chronic Active B-Cell Receptor Signaling;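 for activity change, negative = inhibition: plate controls were basal doxycycline-induced cells for no effect and cells given 10 µM MG132 for full effect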", "settings": "ABC-DLBCL IkBa-CBG/CBR reporter, luminescence ratio (green luciferase fused to IkBa over red control in TMD8 lymphoma cells), 4 h; activity change, negative = inhibition: at 46.1 µM (top of the series)", "how_it_was_run": "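Concentration-response series (up to 46 uM) were applied to TMD8 dual-reporter cells for 4 h at 37C with doxycycline. Green/red ratio, after filter-overlap correction, defined %Activity; red signal alone was normalised to basal cells and zero luminescence.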", "values": [{"smiles": "Cn1c(=O)cc(OCCCC(=O)N2CCN(c3ccccn3)CC2)c2ccccc21", "Potency": "inconclusive: 16.4 µM [falling, single point]"}, {"smiles": "COC(=O)c1scc(C)c1NC(=O)/C=C/C(=O)O", "activity change, negative = inhibition": "inconclusive: -20%"}, {"smiles": "CCc1ccc(C(=O)NN=C2CCCCCC2)s1", "Potency": "inconclusive: 6.31 µM [falling, partial curve, poor fit]"}, {"smiles": "Cc1ccc(O)c(C(=O)/C=C/c2ccc3c(c2)OCCO3)c1", "activity change, negative = inhibition": "inconclusive: -2.66%"}, {"smiles": "Cc1ccc(OCC(=O)c2cc(C)n(-c3ccccc3)c2C)c([N+](=O)[O-])n1", "activity change, negative = inhibition": "inactive: -24.6%"}, {"smiles": "CCC(c1nnnn1C1CCCCC1)N(Cc1ccco1)Cc1cc2ccc(OC)cc2[nH]c1=O", "note": "(stereo not given)", "activity change, negative = inhibition": "inconclusive: -2.37%"}, {"smiles": "S=C(c1nc2ccccc2[nH]1)N1CCOCC1", "Potency": "inconclusive: 29.1 µM [falling, single point]"}, {"smiles": "COc1cc(CC(=O)NCc2ccccn2)cc(OC)c1OC", "activity change, negative = inhibition": "inconclusive: -0.193%"}, {"smiles": "COc1ccccc1CNc1cc(-c2ccccc2)ccc1OC", "activity change, negative = inhibition": "inactive: 1.96%"}, {"smiles": "COCCNc1nnc(SCC(=O)c2c[nH]c3ccccc23)s1", "Potency": "inconclusive: 20.6 µM [falling, partial curve, poor fit]"}, {"smiles": "O=C(Nc1ccc(OCC(F)(F)C(F)F)cc1)c1ccncc1", "activity change, negative = inhibition": "inconclusive: 0.174%"}, {"smiles": "Cc1ccc(C)c(NC(=S)/C(=C(\\[O-])c2ccc(Cl)s2)[n+]2ccccc2)c1", "activity change, negative = inhibition": "inactive: -7.17%"}, {"smiles": "CC(C)C(=O)Nc1cccc(NC(=S)NC(=O)c2ccc([N+](=O)[O-])cc2)c1", "activity change, negative = inhibition": "inconclusive: 13.8%"}, {"smiles": "COc1ccc(CCNC(=O)c2cccc(NS(=O)(=O)c3ccccc3F)c2)cc1OC", "activity change, negative = inhibition": "inconclusive: -5.83%"}, {"smiles": "CC(C)CNC(=S)Nc1ccc(F)cc1", "activity change, negative = inhibition": "inconclusive: 3.26%"}, {"smiles": "CCC(CC)C(=O)Nc1cccc(/C(C)=N/NC(=O)c2ccccc2Cl)c1", "Potency": "inconclusive: 20.6 µM [falling, partial curve]"}, {"smiles": "CCOC(=O)C1(Cc2ccccc2C)CCCN(S(=O)(=O)c2cccnc2)C1", "note": "(stereo not given)", "activity change, negative = inhibition": "inactive: 8.15%"}, {"smiles": "CCCCn1c(=O)n(CC(=O)Nc2ccc(OC)c(Cl)c2)c(=O)c2c1nc(CO)n2CCC", "activity change, negative = inhibition": "inconclusive: 5.23%"}, {"smiles": "CSc1ncccc1C(=O)Nc1ccc2nc(C)sc2c1", "Potency": "inconclusive: 22.4 µM [falling, single point]"}, {"smiles": "N/C(=N\\c1nc2ccccc2o1)NC(=O)c1ccc(Cl)cc1", "activity change, negative = inhibition": "inactive: 5.83%"}, {"smiles": "COc1ccc(N2CCN(C(CNC(=O)c3cccc(Cl)c3)c3cccnc3)CC2)cc1", "note": "(stereo not given)", "activity change, negative = inhibition": "inactive: 2.33%"}, {"smiles": "Fc1cccc(Oc2nc3ccccc3n3cccc23)c1", "activity change, negative = inhibition": "inconclusive: 7.62%"}, {"smiles": "CSc1ccc(NC(=O)Nc2ccccc2C(N)=O)cc1", "Potency": "inconclusive: 35.5 µM [falling, partial curve, poor fit]"}, {"smiles": "CNS(=O)(=O)c1cn(CC(=O)Nc2cccc(OC)c2)cc1S(=O)(=O)NC", "Potency": "inconclusive: 11.2 µM [falling, partial curve, poor fit]"}, {"smiles": "O=C(c1ccc(O)cc1)c1ccc(O)cc1O", "Potency": "inconclusive: 7.94 µM [falling, partial curve, poor fit]"}, {"smiles": "CC1(C)CC(=O)C2=C(C1)OC(N)=C(C#N)C2C#Cc1ccccc1", "note": "(stereo not given)", "Potency": "inconclusive: 35.5 µM [falling, single point]"}, {"smiles": "Cc1nc(NC(=O)COC(=O)/C=C/c2ccco2)c(Cl)cc1Cl", "activity change, negative = inhibition": "inconclusive: 2.83%"}, {"smiles": "COc1ccc(Nc2nc(C)cc(C)c2C#N)cc1", "activity change, negative = inhibition": "inconclusive: 7.68%"}, {"smiles": "CCC(C)(C)NC(=O)C(c1ccc(OC)cc1)N(Cc1ccco1)C(=O)CCC(=O)Nc1cc(C)on1", "note": "(stereo not given)", "Potency": "inconclusive: 0.58 µM [falling, full curve, poor fit]"}, {"smiles": "CC(C)CC[n+]1ccccc1/C=C/c1ccc(N(C)C)cc1", "activity change, negative = inhibition": "inconclusive: -5.09%"}, {"smiles": "COC(=O)c1ccc(/C=N/Nc2nc(C)c(C)s2)cc1", "Potency": "inconclusive: 11.2 µM [falling, partial curve, poor fit]"}, {"smiles": "Cc1cccc([C@@H]2[C@@H]3C(=O)N(Cc4ccccc4)C(=O)[C@@H]3[C@]3(Cc4ccccc4)C(=O)N(c4cccc(F)c4)C(=O)N23)c1", "activity change, negative = inhibition": "inconclusive: -7.02%"}, {"smiles": "COc1ccccc1-n1cnnc1SCC(=O)Nc1nc(C)c(Cl)cc1Cl", "Potency": "inconclusive: 23.1 µM [falling, partial curve]"}, {"smiles": "O=C(CSc1nncc2ccccc12)Nc1ccc(C(=O)O)cc1", "Potency": "inconclusive: 22.4 µM [falling, single point]"}, {"smiles": "O=C(Nc1ccc(F)c(Cl)c1)c1ccccc1", "activity change, negative = inhibition": "inconclusive: -17.5%"}, {"smiles": "COc1ccccc1C(=O)c1cc2ccc(O)cc2oc1=O", "Potency": "inconclusive: 17.8 µM [falling, partial curve]"}, {"smiles": "CC1CCc2c(sc3nc(CN4CCOCC4)nc(NS(=O)(=O)c4cccc([N+](=O)[O-])c4)c23)C1", "note": "(stereo not given)", "Potency": "inconclusive: 3.66 µM [rising, full curve]"}, {"smiles": "O=C(Nc1ccc(C(F)(F)F)cc1)c1cccnc1N1CCOCC1", "activity change, negative = inhibition": "inconclusive: -16.6%"}, {"smiles": "COc1ccccc1NS(=O)(=O)c1cc(C(=O)N2CC(C)CC(C)C2)ccc1C", "note": "(stereo not given)", "activity change, negative = inhibition": "inactive: -1.63%"}, {"smiles": "CN1CCN(C2=Cc3cc(Cl)ccc3Sc3cc(F)ccc32)CC1", "activity change, negative = inhibition": "inconclusive: 14.4%"}, {"smiles": "Cc1ccc(F)cc1NC(=O)CCC(=O)c1cccs1", "activity change, negative = inhibition": "inconclusive: -22.1%"}, {"smiles": "C/C=C(\\C)CN1CCN(c2ccccc2F)CC1", "activity change, negative = inhibition": "inactive: 0.711%"}, {"smiles": "Nc1nc(Cl)nc2c1ncn2C1CC(O)C(CO)O1", "note": "(stereo not given)", "activity change, negative = inhibition": "inactive: 0.969%"}, {"smiles": "CCc1cccc2c(C(=O)CCl)c[nH]c12", "Potency": "inconclusive: 29.1 µM [falling, single point]"}, {"smiles": "C#CC(=O)N(c1cccc(OC)c1)C(C(=O)NC1CCCC1)c1cccs1", "note": "(stereo not given)", "Potency": "inconclusive: 3.55 µM [falling, partial curve, poor fit]"}, {"smiles": "Cc1nc2ccc(NC(=O)N3CCSCC3)cc2s1", "Potency": "inconclusive: 9.2 µM [falling, partial curve, poor fit]"}, {"smiles": "Cc1cc(=O)[nH]c(N/N=C/c2ccc(OC(=O)c3cccnc3)cc2)n1", "activity change, negative = inhibition": "inactive: -1.56%"}, {"smiles": "CC(C)c1ccc(N(C(=O)c2ccc3c(c2)OCO3)C2C=CS(=O)(=O)C2)cc1", "note": "(stereo not given)", "activity change, negative = inhibition": "inconclusive: -6.94%"}, {"smiles": "Cc1cccc(OCCSc2nc(N)cc(N)n2)c1", "activity change, negative = inhibition": "inactive: 10%"}, {"smiles": "CCCCN(CC)CCNC(=O)CN1C(=O)COc2ccc(S(=O)(=O)N3CCCC3)cc21", "activity change, negative = inhibition": "inconclusive: -0.0656%"}, {"smiles": "CCOC(=O)C1(Cc2ccc(OC)cc2)CCN(C(=O)c2cc(C)on2)CC1", "activity change, negative = inhibition": "inactive: 0.729%"}, {"smiles": "Cc1ccc(OCc2cc(C(=O)NCC3COCCO3)no2)cc1C", "note": "(stereo not given)", "activity change, negative = inhibition": "inconclusive: -28%"}, {"smiles": "N#CC(C#N)=C(N)/C(C#N)=C/c1cc(O)c(O)c(O)c1", "activity change, negative = inhibition": "inactive: 25.1%"}, {"smiles": "Cc1ccc(S(=O)(=O)Nc2ccc(NC(=O)c3cccnc3)cc2)cc1", "activity change, negative = inhibition": "inconclusive: 6.09%"}, {"smiles": "COc1ccc2[nH]c(=O)c(CNC3CCCCC3)cc2c1", "activity change, negative = inhibition": "inactive: 12.2%"}, {"smiles": "CCOC(=O)c1cnc2c(-c3ccc(F)cc3)cnn2c1C(F)(F)F", "Potency": "inconclusive: 11.2 µM [falling, partial curve]"}, {"smiles": "CCC(C)[C@H](NC(=O)C1CCN(C(=O)[C@H](Cc2ccccc2)NC(=O)OC(C)(C)C)CC1)C(=O)O", "note": "(stereo not given in full)", "activity change, negative = inhibition": "inconclusive: 0.0309%"}, {"smiles": "N#C/C(=C\\c1ccc(O)c(Br)c1)C(=O)NCc1ccccc1", "activity change, negative = inhibition": "inconclusive: -12%"}, {"smiles": "CCCN(CCC)CCNc1c(NC2CCN(C(=O)OCC)CC2)c(=O)c1=O", "activity change, negative = inhibition": "inconclusive: 5.66%"}, {"smiles": "CCn1c2ccccc2c2cc(NC(=O)N3CCOCC3)ccc21", "activity change, negative = inhibition": "inactive: -1.91%"}, {"smiles": "O=C(O)CCNS(=O)(=O)c1ccc(Oc2ccccc2Cl)cc1", "Potency": "inconclusive: 20.6 µM [rising, partial curve, poor fit]"}, {"smiles": "CC(C)CCn1c(COc2ccccc2)nn(CCC#N)c1=S", "activity change, negative = inhibition": "inactive: -0.87%"}, {"smiles": "CC(=O)c1cccc(Nc2nc(-c3sc(C)nc3C)cs2)c1", "activity change, negative = inhibition": "inconclusive: -4.53%"}, {"smiles": "CCOc1ccc(C(=O)Nc2cccc(-c3ccc(N4CCOCC4)nn3)c2)cc1OCC", "Potency": "inconclusive: 20.6 µM [falling, partial curve]"}, {"smiles": "COc1ccccc1Oc1ccc(N/C=C/C(=O)c2ccc(C)o2)cc1", "activity change, negative = inhibition": "inconclusive: -8.87%"}, {"smiles": "Cc1c(Cc2ccccc2)sc(NC(=O)/C=C/c2cccc3ccccc23)c1C(N)=O", "activity change, negative = inhibition": "inactive: -4.54%"}, {"smiles": "CC(C)c1ccc(N=C(N)N=C(N)N)cc1", "activity change, negative = inhibition": "inconclusive: -6.56%"}, {"smiles": "O=C(O)CCCCCNS(=O)(=O)c1c(Cl)cccc1Cl", "activity change, negative = inhibition": "inconclusive: -2.82%"}, {"smiles": "O=c1oc(-c2cccs2)nc2ccc(Br)cc12", "Potency": "inconclusive: 31.6 µM [rising, partial curve]"}, {"smiles": "CCSc1nnc(NC(=O)CSc2ncccn2)s1", "Potency": "inconclusive: 29.1 µM [falling, single point]"}, {"smiles": "Cc1ccc(-c2nc3cnccn3c2Nc2c(C)cccc2C)o1", "Potency": "inconclusive: 25.1 µM [falling, single point]"}, {"smiles": "Cc1[nH]c2ccc(F)cc2c1CCN(Cc1cccnc1)C(=S)Nc1cccc(F)c1", "activity change, negative = inhibition": "inconclusive: -1.32%"}, {"smiles": "O=S(=O)(NCc1nnc2c(C(F)(F)F)cc(Cl)cn12)c1ccccc1", "activity change, negative = inhibition": "inactive: -0.192%"}, {"smiles": "COc1ccc(CNc2nn[nH]n2)cc1OC", "activity change, negative = inhibition": "inconclusive: 3.41%"}, {"smiles": "CCn1c(NCc2ccc(OC)cc2)nc2ccccc21", "activity change, negative = inhibition": "inactive"}, {"smiles": "COCCNC(=O)CCc1c(C)nc2c(-c3ccc(F)cc3)c(C)nn2c1C", "activity change, negative = inhibition": "inactive: -0.987%"}, {"smiles": "O=C(NCCc1ccccc1)c1ccc(Cn2c(SCc3cccc(F)c3)nc3cccnc32)cc1", "Potency": "inconclusive: 23.1 µM [falling, partial curve, poor fit]"}, {"smiles": "O=C(NC1CCCCCC1)c1ccc(Br)o1", "Potency": "inconclusive: 7.08 µM [falling, full curve]"}, {"smiles": "CC(=O)Nc1ccc(NC(=O)c2ccc(-n3c(C)ccc3C)cc2)cc1", "activity change, negative = inhibition": "inactive: -17%"}, {"smiles": "O=c1oc(-c2ccc([N+](=O)[O-])cc2)nc2ccc(O)cc12", "Potency": "inconclusive: 5.01 µM [falling, partial curve]"}]}]}
